Results on 30 compounds are retold here after ChEMBL document CHEMBL4296182, “CO-ADD screening of NIH NCI Diversity Set V”.

In this experiment the test system is Pseudomonas aeruginosa. The note with it: Concentration 20 uM, ASSAY_TEST Inhibition of Bacterial Growth, detection method Absorption (OD600), MEDIA CAMHB, plate type 384well, NBS, CORNING #3640, time 18 hr.

The structures appear in SMILES notation. Values joined by “and” are separate entries in the source; they are usually repeats but may differ in a detail not shown here. Equal values may be shown once. Some of the results follow. Results with a measured potency or affinity are listed apart.

For the compound `Clc1nc(NCCc2ccccc2)c2c[nH]nc2n1`, the Inhibition is listed as 4.27%. In the case of `OC(COc1cccc2ccccc12)CN1CCN(c2ccc(Cl)cc2)CC1` (stereo not given), the Inhibition (20 µM) is 20.79% and 32.81%. With `O=C(O)C(Cc1c[nH]c2ccccc12)N1C(=O)c2ccccc2C1=O` (stereo not given), the Inhibition was determined as 10.61%. On to `Clc1cc2c(nn1)Nc1ccccc1S2`, for which the Inhibition is on record as 10.47%. As to `COc1cc(NC(=O)c2cc3ccccc3cc2O)c(OC)cc1Cl`, the Inhibition is on record as 14.02%. For the compound `CCOC(=O)c1nc(SC)n(C)c1C(=O)OCC`, the Inhibition was determined as 21.78%. Regarding `Oc1ncc(I)cc1I`, the Inhibition worked out at 12.95%. Same read-out and setting: the value for `CCCCOc1ccc(NC(=O)Nc2nnc(C)s2)cc1` was 22.94%.

Take `CC(C)(C)NC1=NCCNC(c2ccccc2)=C1.CS(=O)(=O)O`: the Inhibition is on record as 28.79%. On to `CCC(C)c1c(N)n(S(=O)(=O)c2ccc(C)cc2)oc1=O` (stereo not given), for which the Inhibition was found to be 16.51%. As to `N#CC1C(=O)NC(=O)C(C#N)C12CCCC(C(F)(F)F)C2` (stereo not given), the Inhibition is on record as -6.35%. Regarding `CC(=O)Nc1nc(C)c(CCCOc2ccc([N+](=O)[O-])cc2)c(O)n1`, the Inhibition is recorded as 13.59%. `NC(=O)c1ccc(Oc2ccc(C(N)=O)cc2)cc1`: the Inhibition amounted to 11.03%.

Consider `O=S(=O)(O)c1ccc2c(c1)C(C(Cl)(Cl)Cl)OC(C(Cl)(Cl)Cl)O2` (stereo not given), for which the Inhibition worked out at 28.49%. Still for that read-out and setting: the result for `C[C@]12CC[C@@H]3c4ccc(OCC(=O)O)cc4CC[C@H]3[C@@H]1CCC2=O` reads 20.73%; that for `CC1=C(O)C(=O)C(c2c(C)cc(C)c(Br)c2C)=C(O)C1=O`, 24.07%. For `COC(=O)c1cncc(C)c1`, the Inhibition is recorded as 18.38%. On the same count and under the same terms, the result for `Nc1nc(N)nc(C2C=CCCC2)n1` (stereo not given) reads 25.38%; that for `c1ccc(-c2nnc(-c3ccccn3)[nH]2)nc1`, 1.32%.

For the compound `CC(C)(C)NC(=O)c1ccc(C(=O)NC(C)(C)C)cc1`, the Inhibition amounted to 5.02%. `Cn1c(=O)c2nc(CCCc3ccc([N+](=O)[O-])cc3)[nH]c2n(C)c1=O`: the Inhibition is recorded as 10.09%.

In the case of `Cc1[nH]c(=O)n(C(C)C)c(=O)c1Br`, the Inhibition was 17.3%. On to `O=C(O)C(c1ccccc1)C1(O)CCCCC1` (stereo not given), for which the Inhibition was determined as 16.85%. As to `CC(=O)OCc1cc(-c2nc3ccccc3nc2O)nn1-c1ccc(Cl)cc1`, the Inhibition was -9.31%.

For `COc1ccc(/C=C2/CCOC2=O)cc1`, the Inhibition stood at 21.63%.

Consider `Nc1nc2c[nH]c(N)nc-2n1`, for which the Inhibition turned out to be 25.21%. For the compound `Nc1ccc(/N=N/c2ccccc2Cl)c(N)n1`, the Inhibition was 15.86%. Same read-out and setting: the value for `CC1=NN(c2ccccc2)C(=O)C1/N=N/c1ccc(S(N)(=O)=O)cc1` (stereo not given) was 28.67%; that for `C1=CC2(C=C1)OC21CCC2(C=CC3(C2)OC3C2CCCCC2)CC1` (stereo not given) was 0.87%. Still for that read-out and setting: the value for `C=CCNc1ncnc2sc(SC)nc12` was 0.4%.

By Inhibition is commonly meant the relative decrease from the control value, in per cent.
